# In article PMC5500509, “The prognostic biomarker L-homoarginine is a substrate of the cationic amino acid transporters CAT1, CAT2A and CAT2B” (Scientific Reports, 2017):
# Chains of the proteins cited; added tags and fusions are not shown. Lines headed by an entry give the natural chain unless they say otherwise; changes in a name come on top.
# UniProt P30825: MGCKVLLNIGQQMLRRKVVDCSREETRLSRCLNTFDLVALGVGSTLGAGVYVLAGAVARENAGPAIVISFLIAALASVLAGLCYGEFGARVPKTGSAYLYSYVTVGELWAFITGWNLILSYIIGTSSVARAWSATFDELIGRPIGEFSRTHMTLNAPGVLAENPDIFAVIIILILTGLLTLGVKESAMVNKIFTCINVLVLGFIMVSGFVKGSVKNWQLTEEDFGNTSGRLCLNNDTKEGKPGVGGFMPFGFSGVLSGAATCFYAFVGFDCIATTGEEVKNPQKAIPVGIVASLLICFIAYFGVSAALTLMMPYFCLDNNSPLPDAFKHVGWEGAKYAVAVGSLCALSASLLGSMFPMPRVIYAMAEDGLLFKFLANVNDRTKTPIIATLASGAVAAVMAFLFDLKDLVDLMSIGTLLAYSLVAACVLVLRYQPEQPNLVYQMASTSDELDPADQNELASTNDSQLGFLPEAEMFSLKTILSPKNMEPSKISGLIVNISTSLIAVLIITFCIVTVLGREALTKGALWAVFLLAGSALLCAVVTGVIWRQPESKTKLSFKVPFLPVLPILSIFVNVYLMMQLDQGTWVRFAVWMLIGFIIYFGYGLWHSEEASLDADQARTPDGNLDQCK
# Molecular target: T1, human CAT1 (SLC7A1) (Homo sapiens, UniProt P30825)
# T1 construct: expressed in transfected cells
# Test: Inhibition of CAT1-mediated substrate uptake in HEK CAT1 cells
# Assay type: cell-based
# Experimental: Cell lines and basic cell culture conditions have previously been described, [24]. The original choice of human embryonic kidney cells (HEK293) cells for transfection with CAT1-, CAT2A- or CAT2B- was based on their reliable growth and well established propensity for transfection and cellular uptake experiments. In brief, uptake assays were performed using [^3H]-labeled substrate and human embryonic kidney (HEK293) cells stably overexpressing the empty vector only (HEK VCG418 and HEK VChygro, depending on selection conditions) or human CAT1 (HEK CAT1, gene: SLC7A1, NM_003045.4), CAT2A (HEK CAT2A, gene: SLC7A2A, NM_003046.5) or CAT2B (HEK CAT2B, SLC7A2B, NM_001008539.3). […]
# The transport assays were performed as previously described with minor modifications, [24]. […] In order to identify the period of linear L-homoarginine uptake time dependence was assessed. […]
# After cooling to 0 °C the cells were washed three times with ice-cold transport buffer and lysed with 0.2% SDS. The intracellular accumulation of radioactivity was determined by liquid scintillation counting (TriCarb 2800; PerkinElmer Life and Analytical Sciences, Inc.) after adding 4 ml of scintillation solution (Ultima Gold XR; PerkinElmer Life and Analytical Sciences, Inc., Rodgau-Jügesheim, Germany). […]
smiles,measurement,value
N=C(N)NCCC[C@H](N)C(=O)O [L-arginine],IC50,259 µM
